The values below are quoted from earlier work in patent US20110293746A1, “Modulation of Gsk-3Beta and Method of Treating Proliferative Disorders” (Agency For Science, Technology and Research, priority 2004, published 2011).

Each structure is given as a SMILES string.

This data set deals with GSK-3α and GSK-3β. The following applies: in vitro, Coghlan et al. 2000; cited from earlier work.

`O=C1NC(=O)C(c2ccccc2[N+](=O)[O-])=C1Nc1ccc(O)c(Cl)c1` [SB-415286]: the “inhibition of GSK-3α versus GSK-3β” value was “equally effective”.
